Measurements reported in EP0409903B1, “PROCESS FOR PREPARING POLYUNSATURATED FATTY ACIDS” (STAROIL LIMITED, priority 1988, dated 1989).
For at least one compound, name, drawing or mass did not settle the structure.

Assays:
[1] = test system: hyperlipemia induced by Triton WR 1339; assay: Activity of DHA on hyperlipemia induced by Triton WR 1339; format: in vivo, Sprague-Dawley albino rats; conditions: male rats; esterified DHA titer 96%, oral, 50 mg/g, 150 mg/kg, 500 mg/kg daily, 2-day pre-treatment; 18 hours after Triton WR 1339; fasting; Figure 2
[2] = test system: hyperlipemia induced by Nath diet; assay: Activity of DHA in hyperlipemia induced by Nath diet; format: in vivo, Sprague-Dawley albino rats; conditions: male rats; esterified DHA titer 96%, oral, 50, 150, 500 mg/kg daily + Nath diet, 5 weeks; sacrificed under fasting conditions; Figure 1
[3] = test system: conversion of arachidonate into PGE₂; conditions: synthesis of prostaglandins in the inflammatory process; Corey E.J. et al., 1983; cited from earlier work
[4] = test system: hypertriglyceridemia induced by ethanol; assay: Activity of DHA in hypertriglyceridemia induced by ethanol; format: in vivo, Sprague-Dawley albino rats; conditions: male rats; esterified DHA titer 96%, oral, 50, 150, 500 mg/kg daily from the day before ethanol; 4th day, 2 hours after last ethanol; Figure 3
[5] = test system: vasoconstriction induced by AA; conditions: at a coronaric level; Talesnik and Carleton, 1982; cited from earlier work
platelet agglutination = conditions: after DHA administration, Hirai et al., 1978, cited from earlier work

In the case of `CC/C=C\C/C=C\C/C=C\C/C=C\C/C=C\C/C=C\CCC(=O)O` [DHA, docosahexaenoic acid], the “levels of the plasmatic lipids altered by the treatment with Triton WR 1339 (total cholesterol, triglycerides)” value [1] is listed as “decreasing the levels of the plasmatic lipids”, the “hyperlipemic effects experimentally induced by the nourishing with the Nath diet (total cholesterol, triglycerides)” value [2] is listed as “inhibit the hyperlipemic effects” and the “conversion of arachidonate into PGE₂” value [3] is listed as “competitive inhibition”. The “hypertrigliceridemia induced by ethanol (triglycerides)” value [4] was “significantly inhibited”, the “vasoconstriction induced by AA” value [5] was “inhibits” and the “interferences with the metabolism of AA” value (platelet agglutination; differently from EPA) was “no particular interferences”. For the same compound, the “platelet agglutination preventive activity” value (platelet agglutination) was “a platelet agglutination preventive activity takes place”.
